Experimental data: PubChem BioAssay AID493246 (Drosophila RNAi Screening Center, 2011)

Purpose: 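Genes fly cells need to grow and stay alive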 (primary screen)
Cells: Drosophila Kc and S2R+ cells
Reagent: long dsRNA against Drosophila genes
Measured: 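Raw, unnormalised count of remaining cells in each well; per-plate z-scores of cell number underlie the calls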
Direction: Kc cell number and S2R+ cell number: higher = more cells remaining
Active means: 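Active when the per-plate z-score of cell number is 3 or more in the direction of fewer cells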
The deposit covers about 21,000 reagents; this is a random part of those with a known target gene and a result. In the full data, 429 (2%) were called active. 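Values are raw and not normalised between plates; calls rest on per-plate z-scores that were not deposited.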 A plus sign joins genes that one reagent is predicted to hit. Not given: the amount of reagent, the time to read-out.

gene	amplicon	Kc cell number, rep 1	Kc cell number, rep 2	S2R+ cell number, rep 1	S2R+ cell number, rep 2	outcome
Pebp1	DRSC15354	1.34e6	1.53e6	9.99e5	1.00e6	inactive
Hrb27C	DRSC03347	1.40e6	1.44e6	6.67e5	7.44e5	inactive
Alp11	DRSC20080	1.46e6	1.47e6	1.07e6	1.13e6	inactive
CG14450	DRSC11707	1.58e6	1.69e6	1.31e6	1.45e6	inactive
Hexo1	DRSC08663	1.54e6	1.51e6	1.13e6	1.43e6	inactive
stan	DRSC05234	5.39e5	7.75e5	6.26e5	7.39e5	active
stan	DRSC07697	1.52e6	1.52e6	1.30e6	1.42e6	inactive
xit	DRSC18364	5.42e5		8.68e5		inactive
CG12818	DRSC14556	1.65e6	1.49e6	1.19e6	1.29e6	inactive
CG14609	DRSC12553	1.41e6	1.49e6	1.33e6	1.41e6	inactive
Ance-4	DRSC07104	1.60e6	1.59e6	1.19e6	1.21e6	inactive
hrm	DRSC04853	1.71e6	1.74e6	1.22e6	1.30e6	inactive
Trf4-2	DRSC15237	1.47e6	1.58e6	1.02e6	1.04e6	inactive
fusl	DRSC02351	1.21e6	1.26e6	6.04e5	7.31e5	inactive
Tailor	DRSC12526	1.37e6	1.49e6	1.22e6	1.35e6	inactive
CG6628	DRSC10679	1.34e6	1.42e6	1.31e6	1.36e6	inactive
Mvk + CG33672 + spt4	DRSC05356	1.52e6	1.50e6	9.93e5	1.10e6	inactive
Mvk + CG33672 + spt4	DRSC06628	1.22e6	1.26e6	1.20e6	1.23e6	inactive
CG42394 + CG6567	DRSC12821	1.81e6	1.91e6	1.12e6	1.33e6	inactive
Ent1	DRSC00330	1.32e6	1.37e6	1.04e6	1.05e6	inactive
IA-2	DRSC00304	1.40e6	1.45e6	8.64e5	9.63e5	inactive
IA-2	DRSC00652	1.31e6	1.33e6	6.62e5	7.97e5	inactive
mthl14	DRSC07865	1.50e6	1.47e6	1.00e6	1.15e6	inactive
CG33493	DRSC10642	1.52e6	1.47e6	1.25e6	1.42e6	inactive

Copied from the list.
Value of CG33493 [DRSC10642] in “Kc cell number, rep 2”: 1.47e6
Under “S2R+ cell number, rep 1”, IA-2 [DRSC00652] shows 6.62e5
